# Measured values published in the supplement of paper PMC10689618.
# Counter-ions that a name gives are not always drawn. This is one part of the list. Repeats are few or missing, and single values can be far off.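 Primary human fetal astrocytes engulfed labelled rat cortical synaptosomes, measured as a red/green ratio corrected for calcein live-cell signal and scaled to the plate median. Toxicity meant calcein falling over 30%; decreased phagocytosis meant below 70% of median above 5 µM.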
# How the values were obtained:
# Human fetal astrocytes [1] = assay: loss of total cells relative to no-compound high-control median (toxicity); higher = more toxic (fewer cells); conditions: 24 h
# Human fetal astrocytes [2] = assay: synaptosome phagocytosis (pHrodo/calcein intensity ratio) relative to plate median of data wells; higher = more phagocytosis; conditions: 24 h
Compound,loss of total cells (Human fetal astrocytes [1]; 1.39 µM),loss of total cells (Human fetal astrocytes [1]; 2.78 µM),loss of total cells (Human fetal astrocytes [1]; 5.56 µM),loss of total cells (Human fetal astrocytes [1]; 11.11 µM),loss of total cells (Human fetal astrocytes [1]; 22.22 µM),synaptosome phagocytosis (Human fetal astrocytes [2]; 1.39 µM),synaptosome phagocytosis (Human fetal astrocytes [2]; 2.78 µM),synaptosome phagocytosis (Human fetal astrocytes [2]; 5.56 µM),synaptosome phagocytosis (Human fetal astrocytes [2]; 11.11 µM),synaptosome phagocytosis (Human fetal astrocytes [2]; 22.22 µM)
Oc1cc(O)cc(/C=C/c2ccc(O)c(O)c2)c1 [Piceatannol],-9%,2.3%,21.1%,14.3%,7.5%,109%,90.4%,81.4%,66.6%,39.9%
N#Cc1cc2nc(O)c(O)nc2cc1[N+](=O)[O-] [CNQX disodium],-10.5%,-15.4%,-10.7%,-16.6%,-12%,100%,92.4%,90.3%,91%,86.6%
Nc1ccc(CCNc2ncnc3c2ncn3C2OC(CO)C(O)C2O)cc1 (stereo not given) [N6-2-(4-Aminophenyl)ethyladenosine],-27.5%,-6.9%,-15.2%,-29.1%,-10.2%,79.2%,99.7%,95.6%,118%,100%
"CC(=O)C(C)=O [2,3-Butanedione]",-3.8%,-8.5%,0%,-4.9%,-8.8%,108%,124%,104%,109%,107%
CC1(C2CCCC2)Cc2cc(OCC(=O)O)c(Cl)c(Cl)c2C1=O (stereo not given),26.1%,18.6%,-3.3%,25.7%,22.4%,41.7%,59.6%,79.8%,88.3%,67%
NC(Cc1cccc(-c2ccccc2CP(=O)(O)O)c1)C(=O)O (stereo not drawn) [Phenylbenzene-omega-phosphono-alpha-amino acid],-2.8%,-23.1%,-16.3%,-13.4%,-34.6%,113%,117%,107%,106%,128%
O=C(Nc1cc(C(=O)Nc2ccc(S(=O)(=O)O)cc2S(=O)(=O)O)cc(C(=O)Nc2ccc(S(=O)(=O)O)cc2S(=O)(=O)O)c1)Nc1cc(C(=O)Nc2ccc(S(=O)(=O)O)cc2S(=O)(=O)O)cc(C(=O)Nc2ccc(S(=O)(=O)O)cc2S(=O)(=O)O)c1 [NF449 octasodium salt],-9%,13.1%,21.1%,17.1%,26.2%,174%,186%,232%,274%,320%
COc1[nH]c2ccc(F)cc2c1C(=O)OCC1CCN(CCNS(C)(=O)=O)CC1.NS(=O)(=O)O,-2.1%,0%,4.9%,-16.6%,-5.6%,114%,83.9%,108%,77.7%,74%
CN1CCC[C@@H]1CCO[C@](C)(c1ccccc1)c1ccc(Cl)cc1 [Clemastine fumarate],-13.2%,-1.2%,-11.5%,-7.6%,8.6%,98.7%,83.5%,58.1%,87.1%,65.9%
Nc1nc2[nH]c(=O)cnc2c(=O)[nH]1 [Isoxanthopterin],-21.3%,-10.4%,-3.3%,9.5%,11.2%,98%,118%,133%,110%,124%
"O=c1[nH]ccc2c(O)cccc12 [1,5-Isoquinolinediol]",-3.3%,5.9%,36.2%,26.7%,33.6%,120%,137%,120%,113%,113%
"CCCCCCCCCCC/C=C\C(C)(C)/C=C\CCCC(=O)O [7,7-Dimethyl-(5Z,8Z)-eicosadienoic acid]",-2.1%,-16.2%,7.4%,-8.5%,-4%,128%,104%,104%,122%,99.8%
NCCS(=O)O [Hypotaurine],-6.3%,-19.7%,-9.9%,-4.9%,0.8%,93.9%,95.4%,117%,130%,145%
Cc1cc(O)c2c(c1)C(=O)c1cc(O)cc(O)c1C2=O [Emodin],-12.1%,-17.1%,0%,-6.7%,0.8%,100%,103%,99.8%,81.7%,73.3%
OC[C@H]1O[C@@H](n2cnc3c(N[C@H]4CC5CCC4C5)ncnc32)[C@H](O)[C@@H]1O (stereo not given in full),0.4%,-15.4%,-1.6%,-10.3%,-4%,114%,108%,88.3%,140%,118%
CCN1/C(=C/C(C)=O)Sc2ccc(OC)cc21,7.1%,12.2%,18.3%,1%,13.1%,86.4%,103%,93.5%,114%,134%
CCN1C(=O)C=CC1=O [N-Ethylmaleimide],4.6%,-22.2%,1.6%,-9.4%,-8%,86.1%,81.4%,87.6%,83.5%,95.3%
CN1CCC[C@@H]1c1cccnc1.Cc1ccc(C(=O)O[C@H](C(=O)O)[C@@H](OC(=O)c2ccc(C)cc2)C(=O)O)cc1 [(+)-Nicotine (+)-di-p-toluoyl tartrate],-15.6%,-4.1%,-6.1%,1%,4.7%,97%,135%,107%,107%,111%
CC1CNCCN1S(=O)(=O)c1cccc2cnccc12 (stereo not given),4.3%,-6.8%,4.2%,30.5%,6.5%,116%,102%,112%,132%,95%
N#CC(C#N)=C(N)/C(C#N)=C/c1cc(O)c(O)c(O)c1 [Tyrphostin 51],5.3%,-23.7%,1.7%,1.9%,-1.6%,87.4%,105%,83.9%,90.5%,124%
O=C(O)C1CCNCC1 [Isonipecotic acid],-12.8%,-14%,-0.5%,10.5%,1.9%,129%,130%,116%,112%,91.1%

# Record cards (already shown). Values in the order: loss of total cells (Human fetal astrocytes [1]; 1.39 µM) | loss of total cells (Human fetal astrocytes [1]; 2.78 µM) | loss of total cells (Human fetal astrocytes [1]; 5.56 µM) | loss of total cells (Human fetal astrocytes [1]; 11.11 µM) | loss of total cells (Human fetal astrocytes [1]; 22.22 µM) | synaptosome phagocytosis (Human fetal astrocytes [2]; 1.39 µM) | synaptosome phagocytosis (Human fetal astrocytes [2]; 2.78 µM) | synaptosome phagocytosis (Human fetal astrocytes [2]; 5.56 µM) | synaptosome phagocytosis (Human fetal astrocytes [2]; 11.11 µM) | synaptosome phagocytosis (Human fetal astrocytes [2]; 22.22 µM)
# `CN1CCC[C@@H]1CCO[C@](C)(c1ccccc1)c1ccc(Cl)cc1` [Clemastine fumarate] as listed: -13.2% | -1.2% | -11.5% | -7.6% | 8.6% | 98.7% | 83.5% | 58.1% | 87.1% | 65.9%
# `Oc1cc(O)cc(/C=C/c2ccc(O)c(O)c2)c1` [Piceatannol] as listed: -9% | 2.3% | 21.1% | 14.3% | 7.5% | 109% | 90.4% | 81.4% | 66.6% | 39.9%
# `OC[C@H]1O[C@@H](n2cnc3c(N[C@H]4CC5CCC4C5)ncnc32)[C@H](O)[C@@H]1O` (stereo not given in full) as listed: 0.4% | -15.4% | -1.6% | -10.3% | -4% | 114% | 108% | 88.3% | 140% | 118%

# (listing goes on)

Compound,loss of total cells (Human fetal astrocytes [1]; 1.39 µM),loss of total cells (Human fetal astrocytes [1]; 2.78 µM),loss of total cells (Human fetal astrocytes [1]; 5.56 µM),loss of total cells (Human fetal astrocytes [1]; 11.11 µM),loss of total cells (Human fetal astrocytes [1]; 22.22 µM),synaptosome phagocytosis (Human fetal astrocytes [2]; 1.39 µM),synaptosome phagocytosis (Human fetal astrocytes [2]; 2.78 µM),synaptosome phagocytosis (Human fetal astrocytes [2]; 5.56 µM),synaptosome phagocytosis (Human fetal astrocytes [2]; 11.11 µM),synaptosome phagocytosis (Human fetal astrocytes [2]; 22.22 µM)
COC(=O)Nc1nc2cc(C(=O)c3cccs3)ccc2[nH]1 [Nocodazole],-21.3%,-5.9%,-22.1%,1%,0.9%,94.2%,97.4%,124%,120%,112%
CO/N=C(\C(=O)N[C@@H]1C(=O)N2C(C(=O)O)=C(COC(C)=O)CS[C@H]12)c1csc(N)n1 [Cefotaxime sodium],-22%,-9.9%,-15.2%,-22.9%,-18.4%,119%,104%,100%,90.1%,95.9%
OC1(c2ccc(Cl)cc2)CCN(Cc2c[nH]c3ccccc23)CC1,-0.5%,-27.6%,10.8%,16.2%,20.6%,114%,109%,87.4%,88.6%,94.8%
CN/C(=N\CCSCc1nc[nH]c1C)NC#N [Cimetidine],-4.4%,-6.9%,-17.1%,2.2%,-4.9%,215%,120%,122%,121%,92.5%
Cc1c(CC(C)(C)C(=O)O)n(Cc2ccc(Cl)cc2)c2ccc(F)cc12,-7.1%,14.9%,14.6%,7.6%,3.7%,94.1%,115%,115%,94.6%,87.7%
O=C(O)C1=CCCNC1 [Guvacine hydrochloride],-0.4%,-12%,-6.6%,-9.4%,8%,114%,124%,104%,112%,116%
O=C1C(SCCO)=C(SCCO)C(=O)c2ccccc21,5.4%,-9.4%,5.8%,-4%,8.8%,92.2%,71%,111%,62.5%,91.2%
Cn1cc(C(F)(F)F)nc1-c1ccc(OCC(O)CNCCOc2ccc(O)c(C(N)=O)c2)cc1 (stereo not given),-2.9%,-3.4%,4.9%,-6.7%,30.4%,89.3%,93.3%,100%,65.7%,81.2%
"c1cnc2c(c1)ccc1cccnc12 [1,10-Phenanthroline monohydrate]",-12.1%,0.3%,-13.5%,12.6%,-3.3%,115%,116%,77%,90.9%,61.3%
CC(=O)[C@]1(O)Cc2c(O)c3c(c(O)c2[C@@H](O[C@H]2C[C@H](N)[C@H](O)[C@H](C)O2)C1)C(=O)c1ccccc1C3=O [Idarubicin],-15.5%,-34.2%,0.8%,2.2%,7.2%,102%,92.3%,96.6%,188%,230%
N=C(N)c1ccccc1 [Benzamidine hydrochloride],-19.8%,-14.4%,-5.1%,-0.4%,-11.7%,125%,114%,122%,110%,98%
"N/C(=N\C(=O)c1nc(Cl)c(N)nc1N)NCc1ccc(Cl)c(Cl)c1 [3',4'-Dichlorobenzamil]",0.4%,-12.8%,3.3%,6.7%,21.6%,75.3%,63%,59.4%,103%,55.8%
COc1cccc(-c2cc(=O)c3ccccc3o2)c1N,-5.3%,-3.9%,-15.7%,-31%,-47.7%,77.8%,110%,83.9%,100%,137%
CCCCCCCC/C=C\CCCCCCCC(=O)NCCO [N-Oleoylethanolamine],4.3%,-3.2%,1.4%,-2.9%,15%,128%,98.9%,107%,87.8%,125%
N#C/C(=C\c1c[nH]c2ccccc12)C(=O)c1ccc(O)c(O)c1 [Tyrphostin AG 808],-29.5%,-24.9%,-21.3%,-18%,-18.9%,93.5%,92%,106%,86.9%,128%
NC(=S)c1ccc[n+]([C@@H]2O[C@@H](COP(=O)([O-])OP(=O)(O)OC[C@H]3O[C@@H](n4cnc5c(N)ncnc54)C(OP(=O)(O)O)[C@H]3O)C(O)C2O)c1 (stereo not given in full) [Thio-NADP sodium],-18.3%,-9.3%,5.1%,-20.3%,-20.6%,86.8%,97.5%,119%,139%,102%
OCCN1CCN(CCCN2c3ccccc3Sc3ccc(C(F)(F)F)cc32)CC1 [Fluphenazine dihydrochloride],-0.4%,-10.3%,3.3%,-3.1%,12%,104%,93.6%,84.5%,49%,47.3%
Nc1c(S(=O)(=O)O)cc(Nc2ccc(Nc3nc(Cl)nc(Nc4cccc(S(=O)(=O)O)c4)n3)c(S(=O)(=O)O)c2)c2c1C(=O)c1ccccc1C2=O [Reactive Blue 2],-14%,-13.5%,-6.7%,10.3%,14.8%,96%,94.7%,104%,67.9%,23.6%
N=C(N)NCCC[C@H](N)C(=O)O [L-Arginine],-15.4%,-10.2%,-3.2%,-7.6%,2.6%,89.3%,66.2%,124%,123%,119%
O=c1[nH]c2ccccc2c2ccccc12 [6(5H)-Phenanthridinone],-0.9%,-12.3%,4.5%,12.6%,-2.5%,114%,111%,122%,97.6%,88.1%
